Laboratory results: PubChem BioAssay AID1508588 (Peter MacCallum Cancer Centre, 2020)
Purpose: 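Which gene losses make BRAF-mutant melanoma cells more responsive to vemurafenib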 (primary screen). Cells: human WM266.4 melanoma cells (BRAF V600 mutant). Knock-down reagent: siRNA pool against human genes, 40 nM. Duration: 96 h from transfection to read-out. Conditions: vemurafenib 300 nM (about IC25), added 48 h after transfection, for 48 h; comparison arm got DMSO vehicle only. Read-out: 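Ratios to non-targeting siRNA for cell gain, counted as DAPI nuclei after minus before drug and averaged over two replicates, and for absorbance-read medium lactate per cell; both binned into fold-change classes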. Scale: cell gain with vemurafenib: higher = more cell gain than with non-targeting siRNA; lactate per cell with vemurafenib: higher = more lactate made per cell. Call rule: 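a knock-down counts as enhancing when its fold-change classes with vehicle and with vemurafenib, taken together, show a stronger drug effect on cell gain or lactate per cell; exact class pairs not stated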. Meaning of the calls: active = enhances vemurafenib effect; inactive = no enhancement seen.
The deposit covers about 18,000 reagents; this is an unselected part. 790 of all reagents (4.4%) count as active. 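Calls rest on a combination of fold-change classes in drug and vehicle arms, not all shown here.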 Entries without a mark were called inactive. Reagents against one gene are numbered here. Reagent sequences are not shown.

gene	reagent no.	cell gain with vemurafenib	lactate per cell with vemurafenib
TMPRSS7	1	0.18	1.86
OTUD7A	1	0.14	1.11
LONRF1	1	0.88	1.1
SDR39U1	1	0.84	0.92
LRRC74A	1	0.67	1.18
SPTAN1	1	0.4	0.72
H2AC17	1	0.3 (active)	0.17
SYPL1	1	0.88	0.64
NF2	1	0.44	1.34
WAPL	1	0.22	0.82
ZMAT3	1	0.65	1.09
WDR36	1	0.72	0.83
H6PD	1	0.74	0.63
SDK1	1	1.56	0.88
PCDH10	1	1.31	0.56
THRB	1	0.43	1.02
OTOP1	1	0.4	1.1
DYNC2I1	1	0.85	1.1
SNX16	1	1.25	0.64
SLC60A1	1	0.53	1.16
TM7SF2	1	0.14	3.19
SOCS7	1	-0.09	2.03
NEDD1	1	0.06	1.33
TRPM3	1	0.39	0.86
RPL11	1	-0.08	0.62
COX4I2	1	0.35	0.88
MFGE8	1	0.25	1.77
IGFBP1	1	1.02	0.55
MCL1	1	0.94	0.34
ACO2	1	0.41	0.97
GNB2	1	0.59	0.79
RASSF1	1	0.95	0.62
AIMP1	1	0.08	0.78
CYP4V2	1	0.66	1.23
SF3B2	1	-0.01	1.36
SNRPD2	1	-0.09	1.58
RAI1	1	0.25	0.63
TIE1	1	0.41	1.47
CKM	1	0.96	0.62
ATP8B3	1	0.48	1.01

Next part, starting with the last 9 of the part before.
gene	reagent no.	cell gain with vemurafenib	lactate per cell with vemurafenib
RASSF1	1	0.95	0.62
AIMP1	1	0.08	0.78
CYP4V2	1	0.66	1.23
SF3B2	1	-0.01	1.36
SNRPD2	1	-0.09	1.58
RAI1	1	0.25	0.63
TIE1	1	0.41	1.47
CKM	1	0.96	0.62
ATP8B3	1	0.48	1.01
SNX24	1	0.65	1.65
WNK1	1	-0.07 (active)	0.34
WNK1	2	0.59	1.31
ARPC1A	1	0.41	0.55
MCM5	1	0.66	0.54
ZNF181	1	0.67	0.83
TRPV2	1	0.39	0.72
HOXB1	1	0.7	1.1
GPR31	1	0.94	0.94
TGM5	1	0.6	1.03
JADE2	1	1.11	0.97
TIMM50	1	0.56	0.78
CYP4F11	1	0.7	0.82
SLC36A1	1	0.3	0.64
SIRT5	1	0.98	0.82
GTF2A1L	1	0.74	1.4
EXOSC2	1	0.82	0.56
C4orf17	1	0.49	1.68
REXO1	1	0.6	0.97
PTGER1	1	0.68	1.21
RABAC1	1	0.92	0.64
ARMC10	1	0.48	0.46
MRTFA	1	0.6	1.13
APEX1	1	0.75	0.86
DOCK2	1	0.18	1.64
INTS7	1	0.31	1.38
FBXO7	1	0.08	0.87
CAPN7	1	0.82	1.43
FERMT1	1	0.53	1.06
HMX1	1	0.75	0.92
IQCH	1	0.92	0.42
UNK	1	0.65	0.98
EIF3J	1	0.1	1.08
NFE2L1	1	0.18	1.24
RNF24	1	0.43	1.08
TPMT	1	0.99	0.44
CHD2	1	1.04	0.77
FGFR2	1	0.29	0.87
ARHGAP17	1	1.39	0.71
KCNA1	1	0.52	0.88
KCND2	1	0.67	0.59
BTBD17	1	0.87	1.08
PSG8	1	0.56	1.03
CYP4X1	1	0.76	0.73
